The text below walks through data of PMC10817852, “Vascular injury activates the ELK1/SND1/SRF pathway to promote vascular smooth muscle cell proliferative phenotype and neointimal hyperplasia”.

Construct, isoform or probe ends are uncertain for at least one entry. At least one verdict rests on a figure or table, not on a statement of the authors.

The series has as its system SRF (1-266) in complex with SND1 + SND1 (1-660). Description: EMSA. The note with it: SRF and SND1 together; Beyotime GS009 chemiluminescent EMSA kit binding buffer (composition, salt and pH not given), 20 fmol biotin probe, 0.1 ug protein, 10 min at room temperature; recombinant protein; label: biotin. In general terms: In EMSA bound probe runs differently from free probe, usually more slowly.
Turning to “CCTTAAATGGCCTTAAATGGCCTTAAATGGCCTTAAATGGCCTTAAATGG (double strand) [Rock2 CArG probe]”, the binding result is “binds”.
For “CCTATTTAGTCCTATTTAGTCCTATTTAGTCCTATTTAGTCCTATTTAGT (double strand) [Iqgap1 CArG probe]”, the binding result is given as “binds”.
In the case of “CCATATTAGGCCATATTAGGCCATATTAGGCCATATTAGGCCATATTAGG (double strand) [Fos CArG probe]”, the binding result was “binds”.
For the sequence “CCTATATAGACCTATATAGACCTATATAGACCTATATAGACCTATATAGA (double strand) [Cdk2 CArG probe]”, the binding result was “binds”.
